Publication PMC10294715
The exact form of at least one protein or probe is not confirmed. At least one verdict rests on a figure or table, not on a statement of the authors.

Protein sequences, listed by entry. Tags and fused reporters are not part of them.
UniProt D3Z6P9, entry or part of it E395Q: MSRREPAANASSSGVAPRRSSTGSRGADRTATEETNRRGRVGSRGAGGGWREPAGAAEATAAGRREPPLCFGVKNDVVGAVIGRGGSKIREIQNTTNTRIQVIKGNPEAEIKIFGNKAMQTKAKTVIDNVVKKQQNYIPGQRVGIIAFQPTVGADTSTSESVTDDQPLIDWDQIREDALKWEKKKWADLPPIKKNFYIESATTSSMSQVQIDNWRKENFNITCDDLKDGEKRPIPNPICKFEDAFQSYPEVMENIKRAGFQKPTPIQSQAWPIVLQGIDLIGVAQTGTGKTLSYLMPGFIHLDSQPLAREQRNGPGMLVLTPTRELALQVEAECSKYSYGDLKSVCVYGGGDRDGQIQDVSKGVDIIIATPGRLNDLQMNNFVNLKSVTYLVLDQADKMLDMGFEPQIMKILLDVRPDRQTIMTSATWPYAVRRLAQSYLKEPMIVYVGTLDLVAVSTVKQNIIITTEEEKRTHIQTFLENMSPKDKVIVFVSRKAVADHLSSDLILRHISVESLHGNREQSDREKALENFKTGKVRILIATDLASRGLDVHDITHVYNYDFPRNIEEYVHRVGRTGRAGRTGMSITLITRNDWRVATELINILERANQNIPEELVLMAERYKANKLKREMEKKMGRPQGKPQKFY

These sequences were tested against DDX43-KI E395Q (Mus musculus) (UniProt D3Z6P9) (assay: EMSA). Conditions: EMSA: 10 nM biotin-RNA, 50 mM Tris-HCl pH 7.5, 100 mM KCl, 2.5% glycerol, 0.05% NP-40, 4 mM EDTA, 1 mM DTT, RiboLock 2 U, 37 C 30 min; 8% native TBE PAGE at …; recombinant protein; protein details: His tag (Ni-NTA, pET28a); label: 3' biotin.

| Sequence | binding result |
| --- | --- |
| CGGCGGAGGGGCGGGAGGGU [Elfn2 RG4 only sequence1] | binds |
| CGGCGGAGGGGCGGGAGGGUCUGCAGCGGAGAGAGG [Elfn2 3' tailed RG4 sequence1] | binds |
| CGGCGGGAGGCGGGGGUGGC [Elfn2 RG4 only sequence2] | binds |
| CGGCGGGAGGCGGGGGUGGCAGUGUCUGCGCGCACA [Elfn2 3' tailed RG4 sequence2] | binds |
| GGGGAGGGUCCGGGUGGGA [RG4 only sequence] | binds |
| GGGGAGGGUCCGGGUGGGACCGGUGGUGUUUUUU [3' tailed RG4 sequence] | binds |
